Taken from: PubChem BioAssay AID1259276 (Sanger Institute, 2017)

- Aim: 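Kinase knock-downs that reduce colorectal cancer cell viability alone or with anchor drugs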 (primary screen)
- Cells: human C2BBe1 colorectal cancer cells
- Reagent: siRNA pool against human genes
- Treatment: DMSO vehicle, or one anchor drug: BYL719 at 1 µM, cetuximab at 5 µg/ml, or trametinib at 10 nM; exposure length not stated
- Measurement: 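Cell viability as a fraction of non-targeting control wells, mean of replicates, also as a control-based robust z-score, plus a synergy score for each anchor drug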
- Reading the numbers: viability robust z-score, siRNA alone: higher = more viable cells after knock-down
- Rule for the call: 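Called essential when knock-down alone gives a viability robust z-score below -3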
- Calls: active = essential (siRNA alone); inactive = no change (siRNA alone)
The whole screen tested 794 reagents; below is an unselected part. Of all reagents, 24 (3%) were called active. 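Calls come only from the siRNA-alone arm; drug synergy scores do not affect them.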 Not all columns of the deposit are shown. Not stated in the record: the amount of reagent, the time to read-out.

What is on record for PRKACB [SID56478825]?
viability robust z-score, siRNA alone: 0.472; Outcome: inactive

What did the screen give for GK2 [SID56479273]?
viability robust z-score, siRNA alone: 0.472; Outcome: inactive

With SGK3 [SID56478777], how do the results read?
viability robust z-score, siRNA alone: 0.472; Outcome: inactive

With ALDH18A1 [SID152152799], how do the results read?
viability robust z-score, siRNA alone: 0.472; Outcome: inactive

What did the screen give for MAP3K1 [SID152150888]?
viability robust z-score, siRNA alone: 0.309; Outcome: inactive

For ZC3H11A [SID135624155], what does the deposit list?
viability robust z-score, siRNA alone: 0.472; Outcome: inactive

What is on record for CDKN2D [SID135620643]?
viability robust z-score, siRNA alone: -2.87; Outcome: inactive

What is on record for AK5 [SID56478914]?
viability robust z-score, siRNA alone: 0.472; Outcome: inactive

With NEK2 [SID56478772], how do the results read?
viability robust z-score, siRNA alone: -2.32; Outcome: inactive

What is on record for PIK3CD [SID135621250]?
viability robust z-score, siRNA alone: 0.472; Outcome: inactive

For CDKL2 [SID152156267], how do the results read?
viability robust z-score, siRNA alone: 0.472; Outcome: inactive

For DLG3 [SID135621778], what does the deposit list?
viability robust z-score, siRNA alone: 0.472; Outcome: inactive

How did the screen score COQ8B [SID56478994]?
viability robust z-score, siRNA alone: -0.0265; Outcome: inactive

Which result is listed for MAPK3 [SID135620708]?
viability robust z-score, siRNA alone: -2.61; Outcome: inactive

How did the screen score IKBKE [SID56478721]?
viability robust z-score, siRNA alone: 0.472; Outcome: inactive

Which result is listed for BRSK2 [SID152155603]?
viability robust z-score, siRNA alone: 0.472; Outcome: inactive

How did the screen score TJP2 [SID135621862]?
viability robust z-score, siRNA alone: 0.472; Outcome: inactive

Which result is listed for ITPK1 [SID56479109]?
viability robust z-score, siRNA alone: 0.472; Outcome: inactive

For MAP3K6 [SID56478746], what was measured?
viability robust z-score, siRNA alone: 0.472; Outcome: inactive

How did the screen score CDK18 [SID56478887]?
viability robust z-score, siRNA alone: 0.472; Outcome: inactive

What is on record for PFKFB4 [SID152152940]?
viability robust z-score, siRNA alone: 0.472; Outcome: inactive

With MYLK3 [SID152154935], what was measured?
viability robust z-score, siRNA alone: -0.203; Outcome: inactive

What is on record for PTPN11 [SID134310183]?
viability robust z-score, siRNA alone: 0.472; Outcome: inactive

With CAMK1G [SID56478930], how do the results read?
viability robust z-score, siRNA alone: 0.472; Outcome: inactive

With CTNNB1 [SID134309920], how do the results read?
viability robust z-score, siRNA alone: -3.16; Outcome: active

How did the screen score LCK [SID152150546]?
viability robust z-score, siRNA alone: 0.0535; Outcome: inactive

With NEK3 [SID152154962], how do the results read?
viability robust z-score, siRNA alone: 0.287; Outcome: inactive

What is on record for TBK1 [SID56478726]?
viability robust z-score, siRNA alone: -0.339; Outcome: inactive

For CAMK2A [SID56478931], what does the deposit list?
viability robust z-score, siRNA alone: 0.472; Outcome: inactive

For MAPK7 [SID56478666], what does the deposit list?
viability robust z-score, siRNA alone: 0.472; Outcome: inactive

Which result is listed for PRKDC [SID56478960]?
viability robust z-score, siRNA alone: 0.472; Outcome: inactive

For ITPKA [SID152154114], how do the results read?
viability robust z-score, siRNA alone: 0.472; Outcome: inactive

With INSRR [SID56479015], how do the results read?
viability robust z-score, siRNA alone: -4.21; Outcome: active

For OBSCN [SID56479016], what does the deposit list?
viability robust z-score, siRNA alone: 0.472; Outcome: inactive

What is on record for IRAK4 [SID134309837]?
viability robust z-score, siRNA alone: 0.472; Outcome: inactive

For EPHB2 [SID135620616], what was measured?
viability robust z-score, siRNA alone: -2.13; Outcome: inactive

In a second layout: 5 of the entries above
CAMK2A [SID56478931]
- viability robust z-score, siRNA alone: 0.472
- Outcome: inactive

MAPK7 [SID56478666]
- viability robust z-score, siRNA alone: 0.472
- Outcome: inactive

PRKDC [SID56478960]
- viability robust z-score, siRNA alone: 0.472
- Outcome: inactive

ITPKA [SID152154114]
- viability robust z-score, siRNA alone: 0.472
- Outcome: inactive

INSRR [SID56479015]
- viability robust z-score, siRNA alone: -4.21
- Outcome: active
